# According to US12297295B2 (Saint Leo University, priority 2019, dated 2025):
# End groups of sequences in plain letters are not given here.
# Assay: peptide synthesis
# Settings: whole synthesis
sequence,measurement,value
ISFQLMLCVLDYF,final purity (method not given),about 99%
